Measurements reported in PubChem BioAssay AID602346 (Broad Institute, 2012).
About 1,200 (0.35%) of roughly 340,000 compounds were called active. This list was built around the results that the source calls inconclusive (neither active nor inactive); the mix of calls is not that of the screen. Cut-off read from the data, not from the text of the source: active = inhibition above about 50% (passing the limit was not always enough); inconclusive = no clear call, values can overlap the other calls; inactive = below about 31%. Where a SMILES comes first, the peptide text is derived from it.

assay: blockers of Vif multimerization in cells – imaging, HEK293T, single point, primary screen (AID 602346); settings: Vif self-association by quenched fluorescence, 24 h, at 7.49 µM, stronger effect = higher value

Compound | inhibition
Cc1nnc(SC(C)C(=O)NCC2CCCO2)n1-c1ccccc1 (stereo unspecified) | inconclusive: 40.8%
CCOc1nc(N=C(N)N)nc2c(C)cccc12 | inconclusive: 47.1%
COc1ccc(C=NNC(=O)c2cc(C)oc2C)cc1O | inconclusive: 32.9%
O=C(N/N=C\c1ccc(F)cc1)c1cc(OCC(F)(F)F)ccc1OCC(F)(F)F | inconclusive: 45.3%
CN(C(=O)CSc1cccc[n+]1[O-])C1CCCCC1 | inconclusive: 28.8%
Cc1cc([N+](=O)[O-])nn1CC(=O)Nc1ccc(Cc2ccncc2)cc1 | inconclusive: 28.5%
Cc1cccc2cc(C#N)c(NCCNC(=O)c3ccccc3)nc12 | inconclusive: 35.8%
NC(=O)CN1C(=O)/C(=c2\sc3nc(=O)c(Cc4ccccc4)nn3c2=O)c2ccccc21 | inactive: 1.59%
COc1ccc(CCNC(=O)CC2(CC3=NS(=O)(=O)c4ccccc4N3)CCCC2)cc1OC | inconclusive: 34.4%
O=C(Nc1ccc(NC(=O)C2CC2)cn1)c1ccccc1 | inactive: -4.14%
O=C(NC1CCCC1)C(c1cc2c(cc1[N+](=O)[O-])OCO2)N1CCCC1 (stereo unspecified) | inconclusive: 34.6%
CNC(=O)c1c(NC(=O)CCS(=O)(=O)c2ccc(C)cc2)sc2c1CCN(C(=O)OC)C2 | inconclusive: 20.9%
COc1cnc(N(C)C)nc1Sc1ccc(Cl)cc1 | inactive: 16.2%
Cc1ccc(S(=O)(=O)Nc2ccccc2)cc1[N+](=O)[O-] | inactive: -5.15%
Cc1cc(NC(=O)CCN2CCC(C)CC2)ccc1Br | inactive: 23.6%
O=C(/C=C/c1cccc([N+](=O)[O-])c1)c1ccc([N+](=O)[O-])o1 | inconclusive: 44.3%
CCN(C(=O)CSc1nnc(Nc2cccc(C)c2C)s1)C1CCS(=O)(=O)C1 (stereo unspecified) | active: 55.6%
O=C(NCc1ccncc1)c1ccc(Cn2cc(C(F)(F)F)ccc2=O)cc1 | inconclusive: 29.5%
Cc1cccc2nc(CSc3nc4ccc([N+](=O)[O-])cc4[nH]3)c(Br)n12 | active: 54.4%
COc1ccccc1CNC(=O)Cc1ccccc1 | inactive: -1.29%
COC(=O)c1ccccc1NC(=O)Cn1cnc2cc(C)c(C)cc21 | active: 70.6%
CCOC(=O)c1nn(-c2ccccc2)cc1O | inactive: -5.81%

Compound | inhibition
COc1cccc(/C=C/C(=O)OCC(=O)Nc2ccc(S(=O)(=O)N3CCCC3)cc2)c1 | inconclusive: 35%
Cc1sc2ncnc(NCCc3ccc(S(N)(=O)=O)cc3)c2c1C | inconclusive: -1.42%
C=C[C@@]1(C)CC(=O)[C@]2(O)[C@@]3(C)[C@@H](O)CCC(C)(C)[C@@H]3[C@H](OC(C)=O)[C@H](O)[C@@]2(C)O1 | active: 81.8%
CCN(CC)CCCN=Cc1c(O)n(-c2ccccc2C)c(=O)c2ccccc12 | inconclusive: 28.4%
CCOC(=O)c1cnc(SCCc2ccccc2)nc1N | inconclusive: 32.1%
COc1cc(NC(=O)c2ccc(N3CCCC3=O)cc2)cc(OC)c1 | inactive: 11.3%
CCSc1nnc(-c2cccs2)o1 | inactive: 1.09%
O=C(CCC1CCCN(C(=O)c2ccncc2)C1)NCc1ccc(F)c(F)c1 (stereo unspecified) | inactive: -1.84%
CC(=O)Nc1nc(C)c(-c2csc(Nc3ccc(O)cc3)n2)s1 | active: 60.8%
CCOc1ccc(C(=O)c2cc([N+](=O)[O-])ccc2N2CCOCC2)cc1 | active: 73.9%
O=C(OCn1ncc(Cl)c(Cl)c1=O)c1ccc(C(F)(F)F)cc1 | inactive: -2.37%
Cc1cccc(-c2cnc(C(O)c3ccc(F)c(C)c3)[nH]2)c1 (stereo unspecified) | inconclusive: 28.2%
Cc1oc(-c2cccc(C(F)(F)F)c2)nc1CN1CCN(c2ccccn2)CC1 | inactive: 3.63%
COc1cccc2c(=O)n(CC(=O)Nc3ccc(F)cc3F)ccc12 | inconclusive: 36.3%
CC(=O)c1cccc(NC2c3ccccc3C(=O)N2Cc2ccc3c(c2)OCO3)c1 (stereo unspecified) | inconclusive: 25.6%
Cc1nnc(NC(=O)Cn2nc(C)c3ccccc3c2=O)s1 | active: 70.2%
CC1CCCC(NC(=O)COC(=O)c2cc(=O)[nH]c3ccccc23)C1C (stereo unspecified) | inconclusive: 37.9%
Nc1nc(Cl)cc(Nc2ccccc2Cl)n1 | inconclusive: 24.2%
O=C(Nc1cccc(-c2nc3cccnc3s2)c1)c1ccco1 | active: 96.5%
O=C1C=C(O)c2c(O)cc(O)c(O)c2C1=O | inconclusive: 31.8%
COC(=O)c1nn(-c2ccc3c(c2)OCO3)cc1O | inactive: 1.39%
Cc1nnc2ccc(-c3cccc(NS(=O)(=O)c4cc(F)ccc4F)c3)nn12 | active: 70.7%

Compound | inhibition
COc1ccccc1CNC(=O)CN1C(=O)NC(C)(c2ccc(C)cc2)C1=O (stereo unspecified) | inconclusive: 28.4%
Cc1cc(C)cc(N(CC(=O)NC2CCCCC2)C(=O)CNC(=O)c2ccco2)c1 | inconclusive: 40.9%
CC(NC(=O)CCCN1C(=O)c2ccccc2C1=O)c1ccc2c(c1)CCCC2 (stereo unspecified) | inactive: 0.704%
CN1OC[C@@H]2CN(C(=O)CCc3ccccc3)[C@H](c3cccc(Oc4ccccc4)c3)C[C@@H]21 | inactive: -3.22%
Cc1cccc(C)c1NC(=O)N1CCC(C(=O)c2ccc(F)cc2)CC1 | inconclusive: 34.7%
CCSc1nnc(NC(=O)CN(C)S(=O)(=O)c2ccc(F)cc2)s1 | inconclusive: 44.2%
Clc1ccc(-c2ccc(/C=N/Nc3cc(N4CCOCC4)nc(N4CCOCC4)n3)o2)cc1 | inconclusive: 42.4%
COc1ccc(NC(=O)CC(CC(=O)O)c2cc(OC)c(OC)c(OC)c2)cc1 (stereo unspecified) | inactive: 3.13%
COc1ccc(Cl)cc1S(=O)(=O)Oc1ccc(NC(C)=O)cc1 | inconclusive: 39.6%
COc1cnc(-c2ccccn2)nc1Oc1ccc(Cl)cc1 | inconclusive: 48.4%
Cc1ccc(C(=O)N/N=C/c2ccc(OC(=O)c3ccccc3Cl)cc2)cn1 | active: 57.8%
CN(C)c1ccc(C=C(c2nnnn2-c2ccccc2)c2nnnn2-c2ccccc2)cc1 | inconclusive: 30.8%
O=C(NCc1ccccc1Cl)C1CCC(=O)N(C2CC2)C1 (stereo unspecified) | inconclusive: 32.4%
CC(c1ccc(F)cc1)n1c(-c2ccc3ccccc3n2)n[nH]c1=S (stereo unspecified) | inactive: 10.1%
Cc1cc(C)cc(NC(=O)COC(=O)COc2ccc(N(C)S(=O)(=O)c3cccs3)cc2)c1 | active: 50.1%
COC(=O)c1ccc(N2C(=O)c3cc(N4CCOCC4)c([N+](=O)[O-])cc3C2=O)cc1 | inconclusive: 29.9%
CCCCN1CC(COCc2ccccc2)Oc2cccc(OCCN3C(=O)[C@@H]4[C@H](C3=O)C3C=C[C@H]4C3)c2S1(=O)=O (stereo partly specified) | inactive: -4.96%
Cc1ccc(NC(=O)CN(C)CC(=O)Nc2ccc(N3CCOCC3)cc2)c(C)c1 | inconclusive: 40.6%
CCCS(=O)(=O)N1CCN(C(=O)CCC2CCCC2)CC1 | inconclusive: 34.9%
O=C(c1cc(-c2ccccc2Cl)nc2ccccc12)N1CCC1 | inconclusive: 30.1%
COc1cc(-c2cnc3c(NC=O)cc(-c4ccccc4)cn23)cc(OC)c1OC | active: 74.2%
CCOc1ccc2oc(C(=O)Nc3ccc4c(c3)OCO4)c(C)c2c1 | inactive: 2.06%

3 compounds picked at random from the list so far:
Compound | inhibition
CCOc1nc(N=C(N)N)nc2c(C)cccc12 | inconclusive: 47.1%
O=C(NCc1ccccc1Cl)C1CCC(=O)N(C2CC2)C1 (stereo unspecified) | inconclusive: 32.4%
CCSc1nnc(-c2cccs2)o1 | inactive: 1.09%

Next part

Compound | inhibition
Cc1oc(-c2ccccc2Cl)nc1CS(=O)(=O)CC(=O)NC1CCCC1 | inconclusive: 21.4%
CC(C)NCC(O)COc1ccc2c(c1)CCC2 (stereo unspecified) | inconclusive: 30.2%
CC(C)C[C@@H]1NC(=O)[C@H](Cc2ccccc2)N(C)C(=O)[C@H](C)NC(=O)c2ccccc2NC(=O)[C@H](Cc2ccc(O)cc2)N(C)C1=O (HELM PEPTIDE1{[O=C(c1ccccc1N[*:1])[*:2]].A.[meF].L.[meY]}$PEPTIDE1,PEPTIDE1,1:R1-5:R2$$$V2.0) | inconclusive: 35.3%
O=C(NC(=S)Nc1ncccn1)c1ccc(F)cc1 | inactive: 2.26%
O=C(Nc1ccccc1C(=O)O)c1cccc(C(=O)Nc2ccccc2C(=O)O)c1 | active: 110%
O=C(CSc1nccn1Cc1ccccc1)Nc1nccs1 | inconclusive: 19.3%
CCCn1c(N)c(N(CCOC)C(=O)c2ccc([N+](=O)[O-])cc2Cl)c(=O)[nH]c1=O | active: 66.6%
CCC1(CC)NC(=O)N(CC(=O)OCC(=O)Nc2ccccc2[N+](=O)[O-])C1=O | inactive: 5.3%
CCC(=O)N1CCC1(C)C(=O)Nc1ccc2c(c1)CCN2C(C)=O (stereo unspecified) | inactive: -7.62%
O=C(COc1cccc2cccnc12)Nc1nccs1 | inconclusive: 37.9%
COc1ccc(NC(=O)C2(C)Cc3c(-c4cccc(NC(C)=O)c4)ccnc3O2)cn1 (stereo unspecified) | active: 58.4%
NC(=O)c1ccsc1NC(=O)COC(=O)c1ccc([N+](=O)[O-])o1 | inactive: -3.82%
Cc1cc(S(=O)(=O)N2CCOCC2)ccc1OCC(=O)NCCN1CCOCC1 | active: 71.3%
CC(C)C[C@H]1CNC(=S)N1C[C@H]1CCCN1C[C@H](CC(C)C)N1C[C@H](CC(C)C)N(CCc2ccccc2)C1=S | inconclusive: 22.3%
COc1ccc(-c2oc3ncnc(NCCCN4CCOCC4)c3c2-c2ccc(OC)cc2)cc1 | inconclusive: 43.3%
O=C(N/N=C/c1cc(Br)cc(Br)c1O)c1cccc(S(=O)(=O)N2CCOCC2)c1 | inconclusive: 18.7%
CCOC(=O)c1cc(CNC(=O)c2c(C)oc3c2CCCC3)c(C)o1 | inconclusive: 40%
COc1ccc2[nH]c(C)c(CCN3C(=O)C4CC=CCC4C3=O)c2c1 (stereo unspecified) | inactive: -0.11%
CCc1ccc(OC2(C)CCN(Cc3ccccc3OC(F)F)C2)cc1 (stereo unspecified) | active: 73.3%
CC1CCC(C(C)C)C2=C1C(C#N)(C#N)C(C#N)(C#N)C(c1ccccc1)N2 (stereo unspecified) | inconclusive: 20.4%
